Results deposited as PubChem BioAssay AID1259424 (University of Nebraska Medical Center, 2018)
Here is a random part of about 14,000 reagents. 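Higher correlation or smaller distance means closer resemblance to KSR1 loss; control wells, including KSR1 knockdowns, recur on many plates.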 Reagent sequences are not shown. The record does not give: the time to read-out.

- Purpose: 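Find knockdowns that reproduce the expression shifts seen after KSR1 loss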 (primary screen)
- System: human HCT116 colon cancer cells
- Reagents: siRNA pool against human genes, 50 nM
- Measured: 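Log2 levels of six mRNAs (branched-DNA multiplex), adjusted by two reference genes and the non-targeting median, then scored against the average KSR1 knockdown pattern as Pearson r and euclidean distance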
- Scale: mean correlation with KSR1 profile and KSR1 correlation: higher = expression change more like KSR1 knockdown; mean distance from KSR1 profile: higher = expression change less like KSR1 knockdown

Gene | mean correlation with KSR1 profile | mean distance from KSR1 profile | KSR1 correlation, replicate 1 | KSR1 correlation, replicate 2 | KSR1 correlation, replicate 3
GPR75 (G protein-coupled receptor 75) | 0.87 | 1.45 | 0.857 | 0.873 | 0.828
SPACA9 (sperm acrosome associated 9) | -0.25 | 1.33 | -0.331 | -0.176 | -0.114
ADCK2 (aarF domain containing kinase 2) | -0.327 | 2.99 | -0.378 | -0.425 | -0.44
UST (uronyl 2-sulfotransferase) | -0.128 | 1.91 | -0.249 | 0.0863 | -0.239
LINC00467 (long independently transcribed non-coding RNA 467) | 0.267 | 2.19 | 0.0797 | 0.153 | 0.213
SSBP2 (single stranded DNA binding protein 2) | 0.00971 | 1.95 | 0.291 | 0.0317 | -0.146
KRT37 (keratin 37) | -0.4 | 2.39 | -0.549 | -0.0418 | -0.838
RBBP7 (RB binding protein 7, chromatin remodeling factor) | 0.167 | 2.08 | 0.191 | 0.151 | 0.147
GFRA1 (GDNF family receptor alpha 1) | -0.37 | 2.73 | -0.482 | -0.209 | -0.44
BMPR1A (bone morphogenetic protein receptor type 1A) | -0.238 | 2.7 | -0.357 | -0.332 | -0.214
SCFD1 (sec1 family domain containing 1) | -0.192 | 1.49 | -0.272 | -0.269 | 0.126
SMPD2 (sphingomyelin phosphodiesterase 2) | 0.0584 | 3.32 | 0.0817 | 0.00342 | 0.0932
GNB1L (G protein subunit beta 1 like) | -0.242 | 7.31 | 0.655 | 0.545 | -0.176
IGHMBP2 (immunoglobulin mu DNA binding protein 2) | -0.0716 | 1.82 | -0.029 | -0.0313 | -0.346
KIF15 (kinesin family member 15) | -0.162 | 1.2 | -0.164 | -0.116 | -0.26
HMGCS2 (3-hydroxy-3-methylglutaryl-CoA synthase 2) | 0.0705 | 3.37 | 0.114 | 0.0275 | -0.0107
IMPG1 (interphotoreceptor matrix proteoglycan 1) | -0.00404 | 2.17 | 0.119 | -0.0491 | -0.26
NBN (nibrin) | 0.52 | 1.76 | 0.576 | 0.401 | 0.401
SPATA31A7 (SPATA31 subfamily A member 7) | -0.175 | 3.59 | 0.211 | -0.46 | -0.514
SLC26A4 | -0.074 | 1.33 | -0.0655 | -0.405 | 0.138
CNTN3 (contactin 3) | -0.312 | 1.91 | 0.0399 | -0.312 | -0.486
TGM5 (transglutaminase 5) | 0.143 | 1.8 | 0.16 | 0.172 | 0.188
PPP1R13L (protein phosphatase 1 regulatory subunit 13 like) | 0.376 | 1.34 | 0.581 | 0.323 | 0.135
PPP1R10 (protein phosphatase 1 regulatory subunit 10) | 0.107 | 2.48 | 0.259 | 0.342 | -0.281
CRTC3 (CREB regulated transcription coactivator 3) | -0.0281 | 1.17 | -0.49 | -0.313 | 0.233
CACNG3 (calcium voltage-gated channel auxiliary subunit gamma 3) | -0.0406 | 1.08 | -0.0952 | 0.0477 | 0.0206
VSIG4 (V-set and immunoglobulin domain containing 4) | 0.496 | 2.5 | 0.535 | 0.381 | 0.546
UBXN4 (UBX domain protein 4) | -0.146 | 1.37 | -0.187 | -0.199 | -0.0177
MRPL16 (mitochondrial ribosomal protein L16) | -0.653 | 6.47 | -0.666 | -0.758 | -0.399
MAPK10 (mitogen-activated protein kinase 10) | 0.93 | 0.489 | 0.935 | 0.923 | 0.923
H2AC6 (H2A clustered histone 6) | 0.768 | 0.949 | 0.544 | 0.774 | 0.535
NADSYN1 (NAD synthetase 1) | 0.133 | 2.65 | -0.00542 | 0.393 | 0.141
EYA1 (EYA transcriptional coactivator and phosphatase 1) | -0.241 | 1.86 | -0.227 | -0.527 | -0.0146
CES2 (carboxylesterase 2) | 0.00902 | 1.68 | 0.126 | -0.00733 | -0.0638
MRPL33 (mitochondrial ribosomal protein L33) | -0.641 | 1.45 | -0.847 | -0.56 | -0.193
PLP1 (proteolipid protein 1) | -0.253 | 2.45 | -0.346 | -0.407 | -0.316
SEC13 (SEC13 homolog, nuclear pore and COPII component) | 0.322 | 1.41 | 0.0856 | 0.142 | 0.657
KCNE3 | 0.535 | 1.09 | 0.254 | 0.701 | 0.402
FNBP4 (formin binding protein 4) | 0.00615 | 4.22 | 0.0674 | 0.0395 | -0.167
PPIL2 (peptidylprolyl isomerase like 2) | -0.631 | 4.38 | -0.304 | -0.728 | -0.807
PALLD (palladin, cytoskeletal associated protein) | -0.105 | 1.8 | 0.0591 | -0.341 | 0.0466
KRT85 (keratin 85) | -0.275 | 2.16 | -0.619 | -0.332 | 0.443
HEATR6 (HEAT repeat containing 6) | 0.148 | 1.96 | 0.273 | 0.249 | 0.00823
NIPAL3 (NIPA like domain containing 3) | -0.328 | 2.2 | -0.236 | -0.48 | -0.266
MRAS (muscle RAS oncogene homolog) | 0.653 | 1.83 | 0.559 | 0.629 | 0.734
FOXF2 (forkhead box F2) | 0.0306 | 2.4 | 0.262 | 0.195 | 0.0654
OSBPL2 (oxysterol binding protein like 2) | 0.221 | 1.36 | 0.34 | 0.23 | 0.205
RBM25 (RNA binding motif protein 25) | -0.601 | 5.63 | -0.482 | -0.578 | -0.449
JRK (Jrk helix-turn-helix protein) | -0.762 | 1.78 | -0.728 | -0.706 | -0.724
SOX15 (SRY-box transcription factor 15) | 0.285 | 4.9 | -0.141 | 0.305 | 0.535

Records above whose gene name starts with G or g:
Gene | mean correlation with KSR1 profile | mean distance from KSR1 profile | KSR1 correlation, replicate 1 | KSR1 correlation, replicate 2 | KSR1 correlation, replicate 3
GPR75 (G protein-coupled receptor 75) | 0.87 | 1.45 | 0.857 | 0.873 | 0.828
GFRA1 (GDNF family receptor alpha 1) | -0.37 | 2.73 | -0.482 | -0.209 | -0.44
GNB1L (G protein subunit beta 1 like) | -0.242 | 7.31 | 0.655 | 0.545 | -0.176
